These are yes or no findings as the source states them, for the method shown. Binding seen in cells or lysates may run through a third protein. Some results given as binding are weak or reduced against the parent protein; the word gives no strength. Tags and fused reporters may be left off the sequences shown.
Target: T1, MZB1 (mouse (endogenous in K46 B cells)) (UniProt Q9D8I1)
T1 sequence: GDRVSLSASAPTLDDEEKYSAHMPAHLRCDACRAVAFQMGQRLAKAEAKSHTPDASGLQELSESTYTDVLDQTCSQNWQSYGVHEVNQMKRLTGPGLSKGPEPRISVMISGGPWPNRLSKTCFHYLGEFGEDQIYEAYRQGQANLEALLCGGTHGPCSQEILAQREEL
Assay: co-IP; lysates of K46 B cells expressing HA-tagged IFNA2, treated with BD Golgi stop for 5 h; anti-Mzb1 monoclonal antibody or IgG control on Protein-G Dynabeads, 4 h at 4 °C; lysis buffer 20 mM HEPES pH 7.6, 0.1% NP40, 150 mM NaCl, 10% glycerol; immunoblot with MZB1- and HA-specific antibodies

binding: binds
B1: HA-tagged IFNA2 (protein, UniProt P01573 24-190)
chain: CDLPHTYNLRNKRALKVLAQMRRLPFLSCLKDRQDFGFPLEKVDNQQIQKAQAIPVLRDLTQQTLNLFTSKASSAAWNATLLDSFCNDLHQQLNDLQTCLMQQVGVQEPPLTQEDALLAVRKYFHRITVYLREKKHSPCAWEVVRAEVWRALSSSVNLLPRLSEEKE
